Reference: patent US11160742B2, “Methods and compositions for improving hair color fastness and rejuvenating hair color” (L'Oreal, priority 2018, dated 2021)

Assay: Color deposition/rejuvenation (ΔE) on hair swatches soaked in SLES, dye and ionic liquid
Details: 6% SLES

CCn1cc[n+](CC)c1 [EEIM OAc, 1,3-Ethyl Imidazolium Acetate]
ΔE (color deposition) (Basic Orange 31 0.005%, with vs without 10% EEIM OAc, 10 minutes, FIG. 5, higher ΔE = more deposition): the ΔE value significantly increases | ΔE (color deposition) (Basic Red 51 0.005%, with vs without ionic liquid, FIG. 6): ΔE values significantly increase | ΔE (color deposition) (Basic Yellow 87 0.005%, with vs without ionic liquid, FIG. 7): ΔE increases
